Measurements from publication PMC9061766.
These are yes or no findings as the source states them, for the method shown. Some binding calls cover weakened binding; strength is not graded here.

T1: Nup93 (X. laevis (endogenous in oocytes)) (UniProt Q7ZX96)
T1 sequence: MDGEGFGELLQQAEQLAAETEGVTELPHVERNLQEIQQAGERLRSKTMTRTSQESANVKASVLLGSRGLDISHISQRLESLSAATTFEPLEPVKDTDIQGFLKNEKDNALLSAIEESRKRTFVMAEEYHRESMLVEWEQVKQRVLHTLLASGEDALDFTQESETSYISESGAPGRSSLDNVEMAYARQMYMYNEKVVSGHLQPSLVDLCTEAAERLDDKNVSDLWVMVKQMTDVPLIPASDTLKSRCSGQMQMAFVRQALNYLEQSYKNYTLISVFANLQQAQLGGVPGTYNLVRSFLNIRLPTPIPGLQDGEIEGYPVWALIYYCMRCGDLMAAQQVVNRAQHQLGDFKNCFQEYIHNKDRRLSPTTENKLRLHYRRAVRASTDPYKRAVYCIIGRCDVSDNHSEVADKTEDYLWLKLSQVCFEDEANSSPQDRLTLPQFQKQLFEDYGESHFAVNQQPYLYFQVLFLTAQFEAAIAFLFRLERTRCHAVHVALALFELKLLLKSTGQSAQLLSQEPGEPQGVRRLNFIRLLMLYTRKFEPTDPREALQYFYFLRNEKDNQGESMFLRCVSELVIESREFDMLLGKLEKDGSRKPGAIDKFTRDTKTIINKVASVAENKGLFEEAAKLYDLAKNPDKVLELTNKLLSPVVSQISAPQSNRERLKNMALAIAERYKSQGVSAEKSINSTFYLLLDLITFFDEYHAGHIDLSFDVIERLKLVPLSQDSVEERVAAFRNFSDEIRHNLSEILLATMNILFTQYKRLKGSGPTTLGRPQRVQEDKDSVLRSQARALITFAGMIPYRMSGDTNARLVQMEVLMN

B1: NDC1 (protein, UniProt Q6AX31 1-660)
chain: MTMLGERLVLRWRVAASFAWSVILMPVCCALFIVLSRIQILHPIQWLTDSISDLTSSYTIFCLLLICAILGLQCTFLMEYYTVVPSIPCSRLALIGNLLLPHRILHSLAHVAMGVLASWCYAVLSKGKYQLLVVSCTLQSEDEADKPSHCLNESHLFQLLCGAFFGYSYSLQYFVHNMNYLSFPSIQQYKYLQFRRFLPLIIKQSVFQSLYFIRSYAILYFCLGNIPRTWIQTALNLHMDRQQPSLDTLRGFLNLSLFYQIWLSGTFLLATWYMVWILFRIYTTEARIFPVQTSFAEEAEKCLPFILNSNTLPLVKYLAMQDLVLLSQYSPSRRQEVFSLSQPGGHPHNWTSISKECLNLMSSLTSRLIAHQEAAANNGRMRVPSSPKQIRKSSSSSGTSLIEDSAEQTQNLSTIPRIGIPSLLKTASLKSSLDIGSPFATPGVKQMSESLDPNTPCHGSVQSPQVTRRGAKLWTSDSDVQKNGSEVSPVMHRPVCNGAKQGILHTWFQHKLVQIKNVLSKRGLIMYLFSKHPEASSQDVFADAQIHIWALEALSHLVAASFSEDRMGVVQTSLSSVLAILLTLQEAVEKHFKLPHASSKPARNPGSLLDSSCKTLRFSLRAALKTAIYRITTTFGEHLHAVPVSSEHKKKLQQFLDFKE
B2: Nup93 (protein, UniProt Q7ZX96 1-820)
chain: T1 sequence

Target: T1, Nup93 (X. laevis (endogenous in oocytes))
Experiment: cryo-EM structure; single-particle cryo-EM of NPCs on the nuclear envelope from X. laevis oocytes; IR subunit reconstructed at 4.2 Å average resolution (local up to 3.8 Å); known and AlphaFold-predicted models docked into the map

Row | Binder | binding
1 | B1 | binds
2 | B2 | binds
